Measured values: doi:10.1101/2022.08.14.503906
Results are given in words; binding and its absence hold for the method and conditions named. Some binding calls cover weakened binding; strength is not graded here. Tags and fused reporters may be left off the sequences shown.

Key:
[1] = molecular target: T1, prenylated Ypt10 (yeast) (UniProt P38146); assay: co-sedimentation
T1 sequence (chain, prenylated (geranylgeranylpyrophosphate, Bet2/Bet4)): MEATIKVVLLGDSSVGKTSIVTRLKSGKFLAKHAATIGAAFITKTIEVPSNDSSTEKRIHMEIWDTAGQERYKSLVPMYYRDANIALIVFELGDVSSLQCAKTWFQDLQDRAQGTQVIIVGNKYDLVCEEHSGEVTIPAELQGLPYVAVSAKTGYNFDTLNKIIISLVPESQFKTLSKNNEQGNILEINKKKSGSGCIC

[2] = molecular target: T2, prenylated Vps21 (yeast) (UniProt P36017); assay: co-sedimentation
T2 sequence (chain, prenylated (geranylgeranylpyrophosphate, Bet2/Bet4)): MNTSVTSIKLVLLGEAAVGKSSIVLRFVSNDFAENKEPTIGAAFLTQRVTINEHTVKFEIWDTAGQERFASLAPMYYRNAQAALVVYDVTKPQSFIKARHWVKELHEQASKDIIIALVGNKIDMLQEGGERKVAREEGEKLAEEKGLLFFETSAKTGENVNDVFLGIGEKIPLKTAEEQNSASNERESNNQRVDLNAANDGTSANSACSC

- binding [1]: binds weakly
- binding [2]: binds weakly
B1: Mon1-Ccz1 complex from Saccharomyces cerevisiae (complex, UniProt P53129;P38273)
chain 1: MNLNESYLDAEIPKGQLKHSKSGNFEGIPIVATTSEPTTSVNLDETFFKKAPIAMPICDDHSVSKSTSVNSLNTTSLASRRSPLQTKKLQAKNNLLSADLAKSNDDTTRALNSPKKDFGPYLDSENDIRSRLAESIYSMETSIRGSELQRRPYVSNEIPNVFKFSKFNSNCKLNESQTLCDKNFFIFTSAGKPIYCMHGKDEQIMSYTGLVNTVISYFQVNGPSELKTISTLTSGKRLTFLDKSPILLMAQSERGESSNELLNQLDFLYSYILSSLSERQLLRLFSKRENFDLRNYLESTDFENLDEICSLICNRMFPDLLLNSLQCLPFNHSSRLKLQNVVLQQLEKRQDIPRGTLLYGLIIAPQNKLCCVLRPRGHTLHTTDLHLLFCLISHQFQNLDETQELWVPICFPKFNSSGFLYCYIKFLPNDTHSNEKSALVLISAQKDAFFSLKSFSDELIIKLEEEKLLKKINTSKGFKLSDIPAPMVHHFIYKSKQNVQYVMPHFEVNSNIALDSSQGLEYELKLKTYYQQLHGTVVRDNGNLLSRSMLNFVRWSSKDNEDLAMDETQMDFSELDEYIIGNSSFKQESVNMVGMAWVTPTFELYLIGNNGIVDKRVLFKSARKVANWCQKHESRLFISDGAVF
chain 2: MRLHYITVFDPSRSTNENDTFKQLLLFHYFGTTDSIPSLNEKLSIIGVIQGIWSLTSSCVNKDGEDLEKIIELNNDIIFCIKVESRFFISLAISNISDDQSAIPLQYLSAYLWLSYRFFKLLNGSFSGFNKDFRKLTDLLNEFVIPFWNDIYLNLETVTNRSFTVMWPGFYKRANFQHSSYNPGEKNNVEESWDAIILQNILLDKKSYLGLKDILVYHLPKRTKAANRESMGTKTYGLVRNFTSDLNTLPDISNWLYHLHCTYGEISSHILTGNVHFKEELQVEEEQERSRDTNGRDEEESQEQQRREHQETTQNNTSELSLSERVIHNVTLPISFAYDAIHEVSTTTGVSGSLSMIMDYVPKPHWPFISSSNKSADKNNYSNSNDNANSNAPLMAQSEAVGGTIGNSRFGFLISPLNSDLLPSSYQALKLNLNFENSKDKEDFYNCLFWYFDDFLIVIVCDPDFNKICERDYLKDLSFQLCQSMECLNNEILNSQNCDNVESFAYVIRDNVTKEIDSSVPFGSPKFTSDESISTLQLAINGIDQFINDNSNSLSLANWNPITIMGGSNAISKKNTTEGFGNGVNDKTQKFKRKYLNFLNLMSAEKLWDLQVDVLQFLTSLQNSKRDPDYFQEERLLKLNNGVLCYIKENNSNLIIIIKNWFQNNGTSKAAKQRNRFSSDSSKGSSLFQSLGRDVTDWWESREI
